In article doi:10.1101/2022.10.16.512122:
Results are given in words; binding and its absence hold for the method and conditions named. Binding seen in cells or lysates may run through a third protein. Some entries that bind do so weakly or less than the wild type. Where a sequence is shown, tags or fusion partners need not be part of it.

By UniProt entry, the sequences of proteins in these tests, tags left out. Where a name states a change or a piece, a line headed by the entry shows the natural chain unless it says otherwise. Chains listed by the source or under a name are the forms on record and can include a tag or linker.
Orb2A (Q9VSR3, form named): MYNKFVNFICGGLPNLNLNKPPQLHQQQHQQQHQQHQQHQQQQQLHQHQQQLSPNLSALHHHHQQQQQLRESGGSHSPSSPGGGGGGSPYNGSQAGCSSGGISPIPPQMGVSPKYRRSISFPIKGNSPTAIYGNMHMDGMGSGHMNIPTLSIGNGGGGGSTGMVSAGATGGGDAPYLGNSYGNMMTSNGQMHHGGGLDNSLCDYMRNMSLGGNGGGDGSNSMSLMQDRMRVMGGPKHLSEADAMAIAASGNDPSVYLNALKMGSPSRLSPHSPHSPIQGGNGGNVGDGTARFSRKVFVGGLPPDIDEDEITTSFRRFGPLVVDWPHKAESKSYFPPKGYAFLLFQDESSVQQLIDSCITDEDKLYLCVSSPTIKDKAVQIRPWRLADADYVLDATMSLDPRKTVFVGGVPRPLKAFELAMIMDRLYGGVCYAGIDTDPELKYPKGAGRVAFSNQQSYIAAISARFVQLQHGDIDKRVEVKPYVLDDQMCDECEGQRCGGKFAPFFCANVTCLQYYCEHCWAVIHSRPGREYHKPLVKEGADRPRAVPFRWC
UniProt Q24133: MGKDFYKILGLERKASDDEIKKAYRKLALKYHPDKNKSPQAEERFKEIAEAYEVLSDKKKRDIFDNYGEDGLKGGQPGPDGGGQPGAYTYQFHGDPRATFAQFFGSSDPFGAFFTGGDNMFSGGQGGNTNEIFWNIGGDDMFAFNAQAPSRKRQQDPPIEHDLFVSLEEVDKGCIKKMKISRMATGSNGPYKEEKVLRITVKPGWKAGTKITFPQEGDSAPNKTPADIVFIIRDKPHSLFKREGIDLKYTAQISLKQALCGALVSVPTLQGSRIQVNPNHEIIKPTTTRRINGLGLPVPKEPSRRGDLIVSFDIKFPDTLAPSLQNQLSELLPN
UniProt P29843: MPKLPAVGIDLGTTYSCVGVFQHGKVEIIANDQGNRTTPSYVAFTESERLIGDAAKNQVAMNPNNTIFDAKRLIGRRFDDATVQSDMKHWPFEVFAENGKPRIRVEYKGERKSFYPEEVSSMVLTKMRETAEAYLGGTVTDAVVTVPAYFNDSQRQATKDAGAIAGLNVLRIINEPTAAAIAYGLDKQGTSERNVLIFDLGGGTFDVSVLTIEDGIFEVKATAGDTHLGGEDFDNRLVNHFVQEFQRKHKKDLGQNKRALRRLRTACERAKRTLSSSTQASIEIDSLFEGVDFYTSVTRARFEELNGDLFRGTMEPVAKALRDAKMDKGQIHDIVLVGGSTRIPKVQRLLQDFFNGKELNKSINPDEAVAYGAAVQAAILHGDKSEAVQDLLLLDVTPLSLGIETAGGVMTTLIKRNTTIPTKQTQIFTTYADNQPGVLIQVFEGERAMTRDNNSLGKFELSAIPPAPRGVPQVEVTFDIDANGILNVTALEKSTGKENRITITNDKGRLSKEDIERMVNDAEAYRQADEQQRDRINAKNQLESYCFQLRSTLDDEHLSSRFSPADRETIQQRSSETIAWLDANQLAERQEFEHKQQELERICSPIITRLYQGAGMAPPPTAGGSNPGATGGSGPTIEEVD
UniProt P11147: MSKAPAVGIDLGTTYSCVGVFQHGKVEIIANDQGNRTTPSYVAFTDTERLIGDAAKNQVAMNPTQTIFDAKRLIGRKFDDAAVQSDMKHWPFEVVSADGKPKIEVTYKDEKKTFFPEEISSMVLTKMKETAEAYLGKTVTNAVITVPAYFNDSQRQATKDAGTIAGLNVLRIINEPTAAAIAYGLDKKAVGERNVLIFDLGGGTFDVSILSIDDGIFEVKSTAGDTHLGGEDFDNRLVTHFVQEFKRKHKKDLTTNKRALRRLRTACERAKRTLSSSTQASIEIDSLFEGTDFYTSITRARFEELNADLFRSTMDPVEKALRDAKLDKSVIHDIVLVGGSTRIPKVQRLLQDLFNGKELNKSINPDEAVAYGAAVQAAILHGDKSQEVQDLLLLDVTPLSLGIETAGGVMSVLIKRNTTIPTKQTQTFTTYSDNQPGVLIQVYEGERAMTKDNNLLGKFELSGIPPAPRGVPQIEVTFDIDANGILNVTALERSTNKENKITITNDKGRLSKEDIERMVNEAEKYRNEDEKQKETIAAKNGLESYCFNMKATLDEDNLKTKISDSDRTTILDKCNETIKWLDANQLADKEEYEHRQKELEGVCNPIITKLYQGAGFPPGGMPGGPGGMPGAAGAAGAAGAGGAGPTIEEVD
UniProt P82910: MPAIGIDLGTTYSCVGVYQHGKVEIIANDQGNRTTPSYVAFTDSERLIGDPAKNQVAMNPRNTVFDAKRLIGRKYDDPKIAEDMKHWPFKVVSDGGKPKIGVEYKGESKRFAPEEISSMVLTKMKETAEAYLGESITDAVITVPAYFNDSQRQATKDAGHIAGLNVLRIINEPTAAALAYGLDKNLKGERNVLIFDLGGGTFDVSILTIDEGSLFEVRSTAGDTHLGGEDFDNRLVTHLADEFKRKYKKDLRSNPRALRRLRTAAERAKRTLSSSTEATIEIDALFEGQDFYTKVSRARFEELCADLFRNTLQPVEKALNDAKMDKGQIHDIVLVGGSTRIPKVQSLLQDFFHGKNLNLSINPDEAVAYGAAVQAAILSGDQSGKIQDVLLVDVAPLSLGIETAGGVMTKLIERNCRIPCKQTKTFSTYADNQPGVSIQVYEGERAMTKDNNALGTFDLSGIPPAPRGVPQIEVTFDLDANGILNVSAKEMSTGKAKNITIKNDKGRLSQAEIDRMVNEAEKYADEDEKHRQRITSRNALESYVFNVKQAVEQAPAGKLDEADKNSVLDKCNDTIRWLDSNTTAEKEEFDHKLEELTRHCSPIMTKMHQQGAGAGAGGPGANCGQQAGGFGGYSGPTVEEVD

B1: CG4164-HA (protein, UniProt Q9VPQ2 23-354)
chain: GRDFYKILNVKKNANTNEVKKAYRRLAKELHPDKNKDDPDASTKFQDLGAAYEVLSNPDKRKTYDRCGEECLKKEGMMDHGGDPFSSFFGDFGFHFGGDGQQQDAPRGADIVMDLYVSLEELYSGNFVEIVRNKPVTKPASGTRKCNCRQEMVTRNLGPGRFQMIQQTVCDECPNVKLVNEERTLEIEVEQGMVDGQETRFVAEGEPHIDGEPGDLIVRVQQMPHPRFLRKNDDLYTNVTISLQDALVGFSMEIKHLDGHLVPVTREKVTWPGARIRKKGEGMPNFENNNLTGNLYITFDVEFPKKDLTEEDKEALKKILDQSSINRIYNGL

molecular target: Orb2A (Drosophila) (UniProt Q9VSR3); experiment: co-IP

| binding | Molecule |
| --- | --- |
| no binding | DnaJ1-HA (from UniProt Q24133 1-334) |
| binds | Hsc70-1-Flag (from UniProt P29843 1-641) |
| binds | Hsc70-4-Flag (from UniProt P11147 1-651) |
| binds | Hsp70Aa-Flag (from UniProt P82910 1-642) |
| binds | B1 |
